# The list shows a part of the results. Many values rest on one well or one pass, so single values are uncertain.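 Imaging used 1,536-well plates; nuclei positive for cleaved PARP by antibody were divided by total DNA-stained nuclei to yield the apoptosis fraction. Doses for screening kept most cells viable, and cell lines differ markedly in resting and induced cleaved-PARP levels.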
# Key:
# Test in all cases: cleaved PARP positive nuclei fraction relative to DMSO control; melanoma cells; higher = more apoptosis
# Details in all cases: library dose: low library concentration; 72 h
# MZ2-MEL = system: MZ2-MEL
# MeWo = system: MeWo
# RPMI7951 = system: RPMI7951
# RVH-421 = system: RVH-421
# SkMel28 = system: SkMel28
# SkMel2 = system: SkMel2
# SkMel30 = system: SkMel30
# SkMel5 = system: SkMel5
# UACC257 = system: UACC257
# UACC62 = system: UACC62
# WM115 = system: WM115
# WM1716 = system: WM1716
# WM1745 = system: WM1745
# WM3526 = system: WM3526
# WM3619 = system: WM3619
# WM451Lu = system: WM451Lu
structure (smiles),measurement,setting,value
"Cc1nc(Nc2ncc(C(=O)Nc3c(C)cccc3Cl)s2)cc(N2CCN(CCO)CC2)n1 [dasatanib] + O=C(CCCCCCC(=O)Nc1ccccc1)NO [vorinostat] (first compound 0.004 µM, partner dose 0.08 µM)",cleaved PARP positive nuclei fraction,MZ2-MEL,157%
same,cleaved PARP positive nuclei fraction,MeWo,79.5%
same,cleaved PARP positive nuclei fraction,RPMI7951,95.6%
same,cleaved PARP positive nuclei fraction,RVH-421,97.6%
same,cleaved PARP positive nuclei fraction,SkMel28,98.3%
same,cleaved PARP positive nuclei fraction,SkMel2,116%
same,cleaved PARP positive nuclei fraction,SkMel30,69.4%
same,cleaved PARP positive nuclei fraction,SkMel5,302%
same,cleaved PARP positive nuclei fraction,UACC257,218%
same,cleaved PARP positive nuclei fraction,UACC62,80.9%
same,cleaved PARP positive nuclei fraction,WM115,74.8%
same,cleaved PARP positive nuclei fraction,WM1716,147%
same,cleaved PARP positive nuclei fraction,WM1745,123%
same,cleaved PARP positive nuclei fraction,WM3526,53.7%
same,cleaved PARP positive nuclei fraction,WM3619,112%
same,cleaved PARP positive nuclei fraction,WM451Lu,220%
"Cn1nnc2c(C(N)=O)ncn2c1=O [temozolomide] + O=C(O)c1ccc(-c2c[nH]c3ncc(-c4ccccc4)cc23)cc1C1CCCC1 [GSK650394] (first compound 2 µM, partner dose 0.16 µM)",cleaved PARP positive nuclei fraction,MZ2-MEL,51.1%
same,cleaved PARP positive nuclei fraction,MeWo,89.6%
same,cleaved PARP positive nuclei fraction,RPMI7951,104%
same,cleaved PARP positive nuclei fraction,RVH-421,102%
same,cleaved PARP positive nuclei fraction,SkMel28,38.3%
same,cleaved PARP positive nuclei fraction,SkMel2,87.2%
same,cleaved PARP positive nuclei fraction,SkMel30,94.8%
same,cleaved PARP positive nuclei fraction,SkMel5,122%
same,cleaved PARP positive nuclei fraction,UACC257,553%
same,cleaved PARP positive nuclei fraction,UACC62,121%
same,cleaved PARP positive nuclei fraction,WM115,124%
same,cleaved PARP positive nuclei fraction,WM1716,121%
same,cleaved PARP positive nuclei fraction,WM1745,104%
same,cleaved PARP positive nuclei fraction,WM3526,44.6%
same,cleaved PARP positive nuclei fraction,WM3619,87.8%
same,cleaved PARP positive nuclei fraction,WM451Lu,236%
"C=CCNC1=C2C[C@@H](C)C[C@H](OC)[C@H](O)[C@@H](C)/C=C(\C)[C@H](OC(N)=O)[C@@H](OC)/C=C\C=C(/C)C(=O)NC(=CC1=O)C2=O [Tanespimycin] + COc1cc2c(Oc3ccc4[nH]c(C)cc4c3F)ncnc2cc1OCCCN1CCCC1 [cediranib] (first compound 0.002 µM, partner dose 0.4 µM)",cleaved PARP positive nuclei fraction,MZ2-MEL,170%
same,cleaved PARP positive nuclei fraction,MeWo,114%
same,cleaved PARP positive nuclei fraction,RPMI7951,42.2%
same,cleaved PARP positive nuclei fraction,RVH-421,93.6%
same,cleaved PARP positive nuclei fraction,SkMel28,91.1%
same,cleaved PARP positive nuclei fraction,SkMel2,92.6%
same,cleaved PARP positive nuclei fraction,SkMel30,60.4%
same,cleaved PARP positive nuclei fraction,SkMel5,131%
same,cleaved PARP positive nuclei fraction,UACC257,139%
same,cleaved PARP positive nuclei fraction,UACC62,74.2%
same,cleaved PARP positive nuclei fraction,WM115,325%
same,cleaved PARP positive nuclei fraction,WM1716,65.8%
same,cleaved PARP positive nuclei fraction,WM1745,7340%
same,cleaved PARP positive nuclei fraction,WM3526,66.5%
same,cleaved PARP positive nuclei fraction,WM3619,88.2%
same,cleaved PARP positive nuclei fraction,WM451Lu,114%
"OCCn1cc(-c2cnc3nnn(Cc4ccc5ncccc5c4)c3n2)cn1 + NCC(=O)Nc1ccc(-n2nc(C(F)(F)F)cc2-c2ccc3c(ccc4ccccc43)c2)cc1 [OSU03012] (first compound 1 µM, partner dose 1 µM)",cleaved PARP positive nuclei fraction,MZ2-MEL,78.5%
same,cleaved PARP positive nuclei fraction,MeWo,191%
same,cleaved PARP positive nuclei fraction,RPMI7951,191%
same,cleaved PARP positive nuclei fraction,RVH-421,189%
same,cleaved PARP positive nuclei fraction,SkMel28,128%
same,cleaved PARP positive nuclei fraction,SkMel2,128%
same,cleaved PARP positive nuclei fraction,SkMel30,115%
same,cleaved PARP positive nuclei fraction,SkMel5,255%
same,cleaved PARP positive nuclei fraction,UACC257,86.8%
same,cleaved PARP positive nuclei fraction,UACC62,31.2%
same,cleaved PARP positive nuclei fraction,WM115,77.5%
same,cleaved PARP positive nuclei fraction,WM1716,122%
same,cleaved PARP positive nuclei fraction,WM1745,93.5%
same,cleaved PARP positive nuclei fraction,WM3526,238%
same,cleaved PARP positive nuclei fraction,WM3619,94.3%
same,cleaved PARP positive nuclei fraction,WM451Lu,140%
"Nc1cccc2c1CN(C1CCC(=O)NC1=O)C2=O (centres undefined) [lenalidomide] + CN(NC(=O)CC(=O)NN(C)C(=S)c1ccccc1)C(=S)c1ccccc1 [STA4783] (first compound 1 µM, partner dose 0.006 µM)",cleaved PARP positive nuclei fraction,MZ2-MEL,117%
same,cleaved PARP positive nuclei fraction,MeWo,55%
same,cleaved PARP positive nuclei fraction,RPMI7951,170%
same,cleaved PARP positive nuclei fraction,RVH-421,102%
same,cleaved PARP positive nuclei fraction,SkMel28,71.5%
same,cleaved PARP positive nuclei fraction,SkMel2,14.2%
same,cleaved PARP positive nuclei fraction,SkMel30,112%
same,cleaved PARP positive nuclei fraction,SkMel5,140%
same,cleaved PARP positive nuclei fraction,UACC257,109%
same,cleaved PARP positive nuclei fraction,UACC62,122%
same,cleaved PARP positive nuclei fraction,WM115,63.1%
same,cleaved PARP positive nuclei fraction,WM1716,151%
same,cleaved PARP positive nuclei fraction,WM1745,216%
same,cleaved PARP positive nuclei fraction,WM3526,125%
same,cleaved PARP positive nuclei fraction,WM3619,179%
same,cleaved PARP positive nuclei fraction,WM451Lu,32.1%
"C[C@@H]1CCN(C(=O)CC#N)C[C@@H]1N(C)c1ncnc2[nH]ccc12 + CN(C)S(=O)(=O)c1ccc2c(c1)/C(=C/c1cc3c([nH]1)CCCC3)C(=O)N2 [SU6656] (first compound 1 µM, partner dose 0.4 µM)",cleaved PARP positive nuclei fraction,MZ2-MEL,44.6%
same,cleaved PARP positive nuclei fraction,MeWo,40.4%
same,cleaved PARP positive nuclei fraction,RPMI7951,47%
same,cleaved PARP positive nuclei fraction,RVH-421,64.5%
same,cleaved PARP positive nuclei fraction,SkMel28,45.2%
same,cleaved PARP positive nuclei fraction,SkMel2,81.8%
same,cleaved PARP positive nuclei fraction,SkMel30,59%
same,cleaved PARP positive nuclei fraction,SkMel5,71.3%
same,cleaved PARP positive nuclei fraction,UACC257,33.4%
same,cleaved PARP positive nuclei fraction,UACC62,54.4%
same,cleaved PARP positive nuclei fraction,WM115,262%
same,cleaved PARP positive nuclei fraction,WM1716,933%
same,cleaved PARP positive nuclei fraction,WM1745,105%
same,cleaved PARP positive nuclei fraction,WM3526,207%
same,cleaved PARP positive nuclei fraction,WM3619,81.1%
same,cleaved PARP positive nuclei fraction,WM451Lu,62.2%
"NC(=O)Nc1cc(-c2cccc(F)c2)sc1C(=O)N[C@H]1CCCNC1 + C[C@@H]1CCN(C(=O)CC#N)C[C@@H]1N(C)c1ncnc2[nH]ccc12 [CP690550] (first compound 0.02 µM, partner dose 1 µM)",cleaved PARP positive nuclei fraction,MZ2-MEL,84.7%
same,cleaved PARP positive nuclei fraction,MeWo,91.2%
same,cleaved PARP positive nuclei fraction,RPMI7951,132%
same,cleaved PARP positive nuclei fraction,RVH-421,138%
same,cleaved PARP positive nuclei fraction,SkMel28,75.3%
same,cleaved PARP positive nuclei fraction,SkMel2,108%
same,cleaved PARP positive nuclei fraction,SkMel30,48.7%
same,cleaved PARP positive nuclei fraction,SkMel5,32.9%
same,cleaved PARP positive nuclei fraction,UACC257,208%
same,cleaved PARP positive nuclei fraction,UACC62,268%
same,cleaved PARP positive nuclei fraction,WM115,61.9%
same,cleaved PARP positive nuclei fraction,WM1716,106%
same,cleaved PARP positive nuclei fraction,WM1745,95%
same,cleaved PARP positive nuclei fraction,WM3526,134%
same,cleaved PARP positive nuclei fraction,WM3619,136%
same,cleaved PARP positive nuclei fraction,WM451Lu,58.4%
"Cn1nnc2c(C(N)=O)ncn2c1=O [temozolomide] + NCC(=O)Nc1ccc(-n2nc(C(F)(F)F)cc2-c2ccc3c(ccc4ccccc43)c2)cc1 [OSU03012] (first compound 2 µM, partner dose 1 µM)",cleaved PARP positive nuclei fraction,MZ2-MEL,55%
same,cleaved PARP positive nuclei fraction,MeWo,151%
same,cleaved PARP positive nuclei fraction,RPMI7951,79.1%
same,cleaved PARP positive nuclei fraction,RVH-421,23.5%
same,cleaved PARP positive nuclei fraction,SkMel28,102%
same,cleaved PARP positive nuclei fraction,SkMel2,260%
same,cleaved PARP positive nuclei fraction,SkMel30,148%
same,cleaved PARP positive nuclei fraction,SkMel5,107%
same,cleaved PARP positive nuclei fraction,UACC257,88%
same,cleaved PARP positive nuclei fraction,UACC62,117%
same,cleaved PARP positive nuclei fraction,WM115,65.2%
same,cleaved PARP positive nuclei fraction,WM1716,146%
same,cleaved PARP positive nuclei fraction,WM1745,92.6%
same,cleaved PARP positive nuclei fraction,WM3526,94.9%
same,cleaved PARP positive nuclei fraction,WM3619,94%
same,cleaved PARP positive nuclei fraction,WM451Lu,145%
"C=CCn1c(=O)c2cnc(Nc3ccc(N4CCN(C)CC4)cc3)nc2n1-c1cccc(C(C)(C)O)n1 + CO[C@@H]1[C@H](N(C)C(=O)c2ccccc2)C[C@H]2O[C@]1(C)n1c3ccccc3c3c4c(c5c6ccccc6n2c5c31)C(=O)NC4 [Midostaurin] (first compound 0.02 µM, partner dose 0.08 µM)",cleaved PARP positive nuclei fraction,MZ2-MEL,96.2%
same,cleaved PARP positive nuclei fraction,MeWo,146%
same,cleaved PARP positive nuclei fraction,RPMI7951,55.8%
same,cleaved PARP positive nuclei fraction,RVH-421,25.6%
same,cleaved PARP positive nuclei fraction,SkMel28,150%
same,cleaved PARP positive nuclei fraction,SkMel2,105%
same,cleaved PARP positive nuclei fraction,SkMel30,172%
same,cleaved PARP positive nuclei fraction,SkMel5,198%
same,cleaved PARP positive nuclei fraction,UACC257,68.8%
same,cleaved PARP positive nuclei fraction,UACC62,102%
same,cleaved PARP positive nuclei fraction,WM115,532%
same,cleaved PARP positive nuclei fraction,WM1716,284%
same,cleaved PARP positive nuclei fraction,WM1745,162%
same,cleaved PARP positive nuclei fraction,WM3526,144%
same,cleaved PARP positive nuclei fraction,WM3619,122%
same,cleaved PARP positive nuclei fraction,WM451Lu,57.1%

# Some of the entries above, set out differently:
structure (smiles) | measurement | setting | value
Cc1nc(Nc2ncc(C(=O)Nc3c(C)cccc3Cl)s2)cc(N2CCN(CCO)CC2)n1 [dasatanib] + O=C(CCCCCCC(=O)Nc1ccccc1)NO [vorinostat] (first compound 0.004 µM, partner dose 0.08 µM) | cleaved PARP positive nuclei fraction | WM115 | 74.8%
Cn1nnc2c(C(N)=O)ncn2c1=O [temozolomide] + O=C(O)c1ccc(-c2c[nH]c3ncc(-c4ccccc4)cc23)cc1C1CCCC1 [GSK650394] (first compound 2 µM, partner dose 0.16 µM) | cleaved PARP positive nuclei fraction | RVH-421 | 102%
